Laboratory results published in PubChem BioAssay AID1724 (National Center for Advancing Translational Sciences (NCATS), 2009).
Where “and” joins values, the source holds several entries; their conditions need not be identical. Equal entries are not always repeated. The shares of active, inactive and inconclusive entries below differ from those in the screen. Potencies beside an inconclusive call are fits to weak or partial responses and may not hold up. Calls of active or inactive are those of the source. Calls follow the shape of the dose curve; as a rule, active = well fitted inhibition curve with a large enough effect; inconclusive = small, poorly fitted or top-dose-only effect, or effect the other way; inactive = no such curve, though single readings can be large or run the other way.

Assay: Confirmation Concentration-Response Assay for Inhibitors of the ERK Signaling Pathway using a Homogeneous Screening Assay
Conditions: HEK293 cells, hormone-stimulated phospho-ERK AlphaScreen; activity change, negative = inhibition: at 40.9 µM (top of the series) unless noted
In short: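 Phospho-ERK AlphaScreen in HEK293 cells stably expressing V1b receptor; 30 min compound exposure at 37C before 5 min 25 nM vasopressin stimulation. Data scaled between DMSO basal and vasopressin activation; AC50 via standard Hill equation.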

| SMILES | Potency | activity change, negative = inhibition |
| --- | --- | --- |
| O=C(Nc1nc(-c2ccccc2)cs1)c1ccc(N2CCOCC2)c([N+](=O)[O-])c1 | active: 7.08 µM |  |
| CN(C)c1cc2c(Nc3ccc4c(cnn4Cc4ccccc4)c3)ncnc2cn1 |  | inactive: -44.7% |
| COC(=O)Cc1c(C)c2ccc(OC(=O)c3ccco3)cc2oc1=O | inconclusive: 14.1 µM [inhibitor, full curve, poor fit] |  |
| Cc1cc2nc3ccc(=[N+](C)C)cc-3sc2cc1N |  | inconclusive: 127% [activator] |
| Cc1cc(-c2ccccc2)n(-c2cc(N/N=C/c3ccccc3O)ncn2)n1 |  | inactive: -78% |
| CCCCOc1cc(CC2CNC(=O)N2)ccc1OC (configuration not stated) | inconclusive: 631 nM [inhibitor, full curve, poor fit] and inconclusive: 891 nM [inhibitor, full curve, poor fit] |  |
| COc1ccc2[nH]cc(CCNc3ncnc4ccc(-c5cccnc5)cc34)c2c1 | inconclusive: 12.6 µM [inhibitor, full curve] |  |
| COc1ccc(C(=O)Nc2cccc(C(C)=O)c2)cc1S(=O)(=O)N1CCOCC1 |  | inactive: -20.3% [at 57.5 µM] |
| CN(C)Cc1ccccc1-c1nc(NCc2cccs2)c2ccccc2n1 | inconclusive: 31.6 µM [activator, partial curve] |  |
| CC(/C=C/c1ccccc1)=N\Nc1ccccc1[N+](=O)[O-] |  | inactive: -97.9% |
| Cn1nc(-c2ccc(Cl)cc2)nc2c(=O)n(C)c(=O)nc1-2 |  | inactive: 5.68% |
| c1ccc(Nc2ncnc3sc4c(c23)CCC4)cc1 | inconclusive: 1.58 µM [inhibitor, full curve, poor fit] |  |
